Measurements reported in PubChem BioAssay AID504793 (Drosophila RNAi Screening Center, 2011).
Screen: 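Whole-genome screen for parts of the DNA damage checkpoint at G2/M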 (primary screen). Cells: Drosophila S2R+ cells. Reagents: long dsRNA against Drosophila genes, about 0.25 µg dsRNA per well. Timing: 4 days of dsRNA, then 4 hours of drug before read-out. Conditions: doxorubicin 0.5 µM for 4 hours to cause double-strand breaks, in cells also given a low, harmless dose of dsRNA against nbs to sensitise the assay. Read-out: 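Per-well count of mitotic cells stained for phospho-histone H3 after doxorubicin exposure, used as mitotic index; counts are raw and not normalised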. Scale: mitotic cells: higher = more cells in mitosis, weaker G2 arrest. Call rule: 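a call needs confirmation in secondary tests, with other dsRNAs and a check of mitotic timing without damage, not just a high primary count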. Meaning of the calls: active = confirmed in follow-up tests; inactive = not confirmed.
The deposit covers about 23,000 reagents; below is an unselected part of those with a known target gene and a result. Over the whole deposit, 62 (0.27%) are marked active. 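Calls come from follow-up tests whose scores are not deposited, so confirmed genes may have low counts here; counts are not normalised per plate.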 The raw values are shown without normalisation. The numbers tell different reagents against one gene apart. Names joined by + are all predicted targets of the reagent.

What is on record for CG10560?
mitotic cells, replicate 1: 9; outcome: inactive

Which result is listed for Atet (ABC transporter expressed in trachea)?
mitotic cells, replicate 1: 2; outcome: inactive

With Pfdn2 (Prefoldin 2), what does the deposit list?
mitotic cells, replicate 1: 1; outcome: inactive

With CG14966, what was measured?
mitotic cells, replicate 1: 4; outcome: inactive

For Ir76a (Ionotropic receptor 76a), what does the deposit list?
mitotic cells, replicate 1: 3; outcome: inactive

What is on record for Cnx99A + Cnx14D?
mitotic cells, replicate 1: 15; outcome: inactive

What is on record for CG33489 #1?
mitotic cells, replicate 1: 3; outcome: inactive

What did the screen give for CG33489 #2?
mitotic cells, replicate 1: 4; outcome: inactive

For Doc3 (Dorsocross3) #1, how do the results read?
mitotic cells, replicate 1: 2; outcome: inactive

What did the screen give for Doc3 (Dorsocross3) #2?
mitotic cells, replicate 1: 4; outcome: inactive

How did the screen score Cyp12c1 (Cytochrome P450 12c1) #1?
mitotic cells, replicate 1: 8; outcome: inactive

With Cyp12c1 (Cytochrome P450 12c1) #2, how do the results read?
mitotic cells, replicate 1: 6; outcome: inactive

With CG12863, what was measured?
mitotic cells, replicate 1: 5; outcome: inactive

For Gnmt (Glycine N-methyltransferase), how do the results read?
mitotic cells, replicate 1: 2; outcome: inactive

For ALiX (ALG-2 interacting protein X) #1, what was measured?
mitotic cells, replicate 1: 6; outcome: inactive

What did the screen give for ALiX (ALG-2 interacting protein X) #2?
mitotic cells, replicate 1: 3; outcome: inactive

Which result is listed for GstD5 (Glutathione S transferase D5) #1?
mitotic cells, replicate 1: 3; outcome: inactive

With GstD5 (Glutathione S transferase D5) #2, how do the results read?
mitotic cells, replicate 1: 4; outcome: inactive

What is on record for alpha-Man-IIb (alpha-Mannosidase class II b) #1?
mitotic cells, replicate 1: 9; outcome: inactive

What did the screen give for alpha-Man-IIb (alpha-Mannosidase class II b) #2?
mitotic cells, replicate 1: 4; outcome: inactive

How did the screen score beat-IV (beaten path IV) #1?
mitotic cells, replicate 1: 4; outcome: inactive

How did the screen score beat-IV (beaten path IV) #2?
mitotic cells, replicate 1: 14; outcome: inactive

For Cad88C (Cadherin 88C) #1, what was measured?
mitotic cells, replicate 1: 6; outcome: inactive

For Cad88C (Cadherin 88C) #2, how do the results read?
mitotic cells, replicate 1: 8; outcome: inactive

For CG12744, what does the deposit list?
mitotic cells, replicate 1: 11; outcome: inactive

What did the screen give for Vinc (Vinculin)?
mitotic cells, replicate 1: 9; outcome: inactive

With CG31626 + CG8677 #1, how do the results read?
mitotic cells, replicate 1: 12; outcome: inactive

What did the screen give for CG31626 + CG8677 #2?
mitotic cells, replicate 1: 4; outcome: inactive

With RYa-R (RYamide receptor), how do the results read?
mitotic cells, replicate 1: 12; outcome: inactive

What is on record for Osi14 (Osiris 14) #1?
mitotic cells, replicate 1: 13; outcome: inactive

What did the screen give for Osi14 (Osiris 14) #2?
mitotic cells, replicate 1: 6; outcome: inactive

Which result is listed for poe (purity of essence) #1?
mitotic cells, replicate 1: 6; outcome: inactive

What is on record for poe (purity of essence) #2?
mitotic cells, replicate 1: 15; outcome: inactive

How did the screen score CG7101 #1?
mitotic cells, replicate 1: 11; outcome: inactive

Which result is listed for CG7101 #2?
mitotic cells, replicate 1: 3; outcome: inactive

With Creld (Cysteine rich with EGF like domains) #1, what does the deposit list?
mitotic cells, replicate 1: 5; outcome: inactive

With Creld (Cysteine rich with EGF like domains) #2, what was measured?
mitotic cells, replicate 1: 11; outcome: inactive

For Ubr1 (Ubr1 ubiquitin ligase), what does the deposit list?
mitotic cells, replicate 1: 5; outcome: inactive

What is on record for CG7810 #1?
mitotic cells, replicate 1: 9; outcome: inactive

What did the screen give for CG7810 #2?
mitotic cells, replicate 1: 10; outcome: inactive

What is on record for pita #1?
mitotic cells, replicate 1: 7; outcome: inactive

With pita #2, how do the results read?
mitotic cells, replicate 1: 11; outcome: inactive

With rost (rolling stone) #1, how do the results read?
mitotic cells, replicate 1: 5; outcome: inactive

What did the screen give for rost (rolling stone) #2?
mitotic cells, replicate 1: 7; outcome: inactive
